The target in the assay is T1, GrxD^Venus (full-length A. fumigatus monothiol glutaredoxin GrxD, C-terminally tagged with Venus) (A. fumigatus) (UniProt Q4X024).
T1 sequence: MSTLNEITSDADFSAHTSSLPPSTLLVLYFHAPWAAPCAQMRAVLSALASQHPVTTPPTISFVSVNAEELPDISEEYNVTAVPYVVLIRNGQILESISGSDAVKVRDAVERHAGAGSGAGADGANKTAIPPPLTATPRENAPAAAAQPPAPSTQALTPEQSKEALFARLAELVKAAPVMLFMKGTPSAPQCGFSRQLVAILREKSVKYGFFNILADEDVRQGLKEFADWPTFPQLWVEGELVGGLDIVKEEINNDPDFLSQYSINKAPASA
In words: affinity purification with mass spectrometry; GFP-Trap agarose beads on mycelial crude extracts of A. fumigatus PxylP:grxD^venus or PxylP:grxD^venusΔtrx grown at -Fe, 0.03 mM Fe or 5 mM Fe (22 h, 37°C, xylose-induced); wt extract as control; 4°C, 1 h; washes with up to 500 mM NaCl; nLC-MS/MS with label-free quantification.

Amino acid sequences for entries named in this document (tags omitted).
UniProt Q4WER3: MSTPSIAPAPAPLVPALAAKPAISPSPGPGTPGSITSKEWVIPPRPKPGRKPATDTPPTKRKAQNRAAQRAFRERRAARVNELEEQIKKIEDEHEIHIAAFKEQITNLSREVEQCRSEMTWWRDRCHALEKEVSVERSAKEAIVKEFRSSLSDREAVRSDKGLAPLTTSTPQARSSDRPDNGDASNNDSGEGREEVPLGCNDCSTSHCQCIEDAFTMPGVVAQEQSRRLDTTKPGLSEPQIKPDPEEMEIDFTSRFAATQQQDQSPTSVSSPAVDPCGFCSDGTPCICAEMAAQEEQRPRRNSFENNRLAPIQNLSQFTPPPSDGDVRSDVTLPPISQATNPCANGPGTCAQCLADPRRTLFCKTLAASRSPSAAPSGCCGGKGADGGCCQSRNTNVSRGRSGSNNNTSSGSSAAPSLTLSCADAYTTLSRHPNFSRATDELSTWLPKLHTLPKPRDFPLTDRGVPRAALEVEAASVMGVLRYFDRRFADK

These are yes or no findings as the source states them, for the method shown. In cells and extracts the contact can be indirect. A yes stands for co-enrichment or nearness to the bait. Other partners may have been found. Tags and fused reporters may be left off the sequences shown.

This passage reports binding results from paper PMC6762210.

“Afu2g11740 (putative ATP-dependent peptidase) (from UniProt Q4X0Z7)”: the binding entry was “binds”. Under “Pmt1 (protein O-mannosyltransferase) (from UniProt Q4WWN0)” stands “binds”; under “Afu3g04110 (putative snoRNA binding protein) (from UniProt Q4WEY6)”, “binds”; under “Afu1g08840 (putative guanylate kinase) (from UniProt Q4WTL9)”, “binds”.

Consider “Adh1 (alcohol dehydrogenase) (from UniProt Q4WAE4)”, for which the binding result is on record as “binds”. The value for “Afu5g12190 (putative transcription initiation factor subunit) (from UniProt Q4WVI2)” was “binds”; that for “Afu7g03980 (putative translation initiation factor eIF3m) (from UniProt Q4WG69)” was “binds”. For “Afu2g09100 (putative polyadenylation factor subunit) (from UniProt Q4X1Q9)”, the binding entry is recorded as “binds”. Under “Afu4g10100 (putative methionine synthase reductase)” stands “binds”; under “CodA (choline oxidase) (from UniProt Q4WCK6)”, “binds”; under “Afu4g14380 (putative glutathione S-transferase) (from UniProt Q4WQX8)”, “binds”. On to “HapX (iron responsive transcription factor) (from UniProt Q4WER3 1-491)”, for which the binding entry is on record as “binds”. Turning to “Nhp6 (non-histone chromosomal protein) (from UniProt Q4WY33)”, the binding entry was “binds”. Under “Afu2g11540 (putative ketoreductase) (from UniProt Q4X117)” stands “binds”; under “Afu1g09170 (putative protein kinase activator) (from UniProt Q4WTI6)”, “binds”.

“Nbp35 (CIA machinery) (from UniProt Q4WZS2)”: the binding result is reported as “binds”.

Regarding “Afu5g04210 (putative ubiquinol-cytochrome C reductase complex core protein 2)”, the binding result is given as “binds”. Regarding “FlbA (developmental regulator) (from UniProt Q4X152)”, the binding entry is reported as “binds”. The value for “Mms19 (CIA machinery) (from UniProt Q4WC83)” was “binds”; that for “Afu1g04660 (putative ribosomal protein L15)” was “binds”; that for “Afu5g01440 (putative peroxiredoxin) (from UniProt Q4WE17)” was “binds”.
